Measured values: US20140234888A1, “Method for Improved Selection of Therapeutic Agents” (priority 2013, published 2014)

Test system: Chronic rhinitis of allergic origin, chronic bronchitis
Assay: Treatment of patient F.
Type: in vivo, human
Settings: before individual testing
Method: Diagnosis: “Chronic rhinitis of allergic origin, chronic bronchitis, allergic component in the acute stage.” In history: positive allergic reactions to penicillin antibiotics, the lack of reaction to tetracycline antibiotics. […] Doxycycline is used in doses of 100 mg and 200 mg on admission; when calculating the duration of induktothermy effect was adopted by the duration of the patient's blood sample for 2 seconds, which corresponds to the length of the actual procedure, 25-30 minutes.

CN1CCC[C@@H]1CCO[C@](C)(c1ccccc1)c1ccc(Cl)cc1 [Tavegil]
efficiency of conventional therapy: low efficiency
